# Measurements reported in PubChem BioAssay AID1259405 (NCATS, 2018).
# Test: 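Knock-downs that lift recombinant protein yield in hamster ovary cells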 (primary screen)
# Cell system: Chinese hamster CHO-K1 ovary cells with stable secreted eGFP expression
# Reagents: single siRNA against mouse genes, 0.8 pmol siRNA per well (2 µl of 400 nM stock)
# Time to read-out: 3 days
# Detection: 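Per-well intracellular GFP measured by laser scanning cytometry, plus viability from ATP luminescence, each relative to plate median of non-targeting control wells, in %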
# Direction: GFP, % of control: higher = more GFP per well, higher productivity; viability (ATP), % of control: higher = more viable cells (more ATP)
# Call rule: 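a knock-down is called active if GFP reaches 120% or more of non-targeting control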
# The whole screen tested about 50,000 reagents; this is a part drawn at random. About 4,000 of all reagents (8%) were called active. 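Mouse siRNA library applied to hamster cells; one well for each siRNA.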 Unmarked entries are inactive. The numbers tell different reagents against one gene apart.
target gene,siRNA no.,"GFP, % of control","viability (ATP), % of control"
Fcf1 (FCF1 rRNA processing protein),1,85.1,74.6
Fcf1 (FCF1 rRNA processing protein),2,70.6,65.5
Fcf1 (FCF1 rRNA processing protein),3,99.4,57.4
Fgl1 (fibrinogen-like protein 1),1,94.7,65.3
Fgl1 (fibrinogen-like protein 1),2,113,88.1
Fgl1 (fibrinogen-like protein 1),3,103,109
Cfap206 (cilia and flagella associated protein 206),1,93.8,61
Cfap206 (cilia and flagella associated protein 206),2,96.2,83.5
Cfap206 (cilia and flagella associated protein 206),3,75.2,74.4
Or8c9 (olfactory receptor family 8 subfamily C member 9),1,68.6,79
Or8c9 (olfactory receptor family 8 subfamily C member 9),2,62.1,79.8
Or8c9 (olfactory receptor family 8 subfamily C member 9),3,45.6,84.2
Baiap2 (brain-specific angiogenesis inhibitor 1-associated protein 2),1,52,58.2
Baiap2 (brain-specific angiogenesis inhibitor 1-associated protein 2),2,39.9,38.1
Baiap2 (brain-specific angiogenesis inhibitor 1-associated protein 2),3,110,100
Polr2j (polymerase (RNA) II (DNA directed) polypeptide J),1,102,52.7
Polr2j (polymerase (RNA) II (DNA directed) polypeptide J),2,65.5,73.4
Acot2 (acyl-CoA thioesterase 2),1,70.6,115
Acot2 (acyl-CoA thioesterase 2),2,123 (active),82.3
Chd6 (chromodomain helicase DNA binding protein 6),1,67.1,56.3
Chd6 (chromodomain helicase DNA binding protein 6),2,55.6,49.7
Chd6 (chromodomain helicase DNA binding protein 6),3,46.3,71
"Amy1 (amylase 1, salivary)",1,57.3,68.1
"Amy1 (amylase 1, salivary)",2,96.3,112
"Amy1 (amylase 1, salivary)",3,20.1,19.7
Rpn1 (ribophorin I),1,76.7,87.2
Rpn1 (ribophorin I),2,37.6,35.7
Ccnd2 (cyclin D2),1,92.3,73
Ccnd2 (cyclin D2),2,89.5,97.7
Xpo5 (exportin 5),1,84,102
Xpo5 (exportin 5),2,140 (active),112
Xpo5 (exportin 5),3,43,60.4
"Zdhhc23 (zinc finger, DHHC domain containing 23)",1,109,102
"Zdhhc23 (zinc finger, DHHC domain containing 23)",2,80.4,59.2
"Zdhhc23 (zinc finger, DHHC domain containing 23)",3,92.8,84.4
Vpreb3 (V-set pre-B cell surrogate light chain 3),1,158 (active),66.8
Vpreb3 (V-set pre-B cell surrogate light chain 3),2,69.1,58.4
Vpreb3 (V-set pre-B cell surrogate light chain 3),3,100,77.6
Ctdnep1 (CTD nuclear envelope phosphatase 1),1,41.7,51.3
Ctdnep1 (CTD nuclear envelope phosphatase 1),2,76.2,66.7
Ctdnep1 (CTD nuclear envelope phosphatase 1),3,101,38.7
Ssbp2 (single-stranded DNA binding protein 2),1,85.3,98.6
Ssbp2 (single-stranded DNA binding protein 2),2,94.3,92.1
"Gabpa (GA repeat binding protein, alpha)",1,99.6,80.3
"Gabpa (GA repeat binding protein, alpha)",2,45.1,52.3
"B4galnt1 (beta-1,4-N-acetyl-galactosaminyl transferase 1)",1,42.8,62.6
"B4galnt1 (beta-1,4-N-acetyl-galactosaminyl transferase 1)",2,204 (active),110
Optc (opticin),1,62.9,52.6
Optc (opticin),2,63.8,76.6
Optc (opticin),3,55.3,70.3
"Irag1 (inositol 1,4,5-triphosphate receptor associated 1)",1,87,118
"Irag1 (inositol 1,4,5-triphosphate receptor associated 1)",2,76.1,93.5
"Irag1 (inositol 1,4,5-triphosphate receptor associated 1)",3,78.3,60.1
Vax2 (ventral anterior homeobox 2),1,49.5,68.4
Vax2 (ventral anterior homeobox 2),2,46.4,60.5
"Tgm1 (transglutaminase 1, K polypeptide)",1,80,93.5
"Tgm1 (transglutaminase 1, K polypeptide)",2,85,62.2
"Tgm1 (transglutaminase 1, K polypeptide)",3,112,104
Trpc4,1,117,84.6
Trpc4,2,72.7,63.9
Trpc4,3,96.3,90.5
Scmh1 (Scm polycomb group homolog 1),1,46.3,52.2
Scmh1 (Scm polycomb group homolog 1),2,102,80.6
Scmh1 (Scm polycomb group homolog 1),3,41.2,49.2
Ackr1 (atypical chemokine receptor 1),1,102,110
Ackr1 (atypical chemokine receptor 1),2,186 (active),113
Etv3 (ets variant 3),1,43.3,36.1
Etv3 (ets variant 3),2,70.4,91.7
Etv3 (ets variant 3),3,101,57.4
Fhl1 (four and a half LIM domains 1),1,100,92.6
Fhl1 (four and a half LIM domains 1),2,55,57.9
Fhad1 (forkhead-associated phosphopeptide binding domain 1),1,53.8,43.3
Fhad1 (forkhead-associated phosphopeptide binding domain 1),2,46.8,46.3
Fhad1 (forkhead-associated phosphopeptide binding domain 1),3,77.1,65.3
Esr1 (estrogen receptor 1 (alpha)),1,76.3,78.3
Esr1 (estrogen receptor 1 (alpha)),2,73.8,73.8
Esr1 (estrogen receptor 1 (alpha)),3,10.3,12.3
Hnmt (histamine N-methyltransferase),1,85.1,86.4
Hnmt (histamine N-methyltransferase),2,61.8,69.5
Hnmt (histamine N-methyltransferase),3,70.8,74.1
"Pdxp (pyridoxal (pyridoxine, vitamin B6) phosphatase)",1,131 (active),72.2
"Pdxp (pyridoxal (pyridoxine, vitamin B6) phosphatase)",2,49.3,47.6
"Pdxp (pyridoxal (pyridoxine, vitamin B6) phosphatase)",3,58.2,34.6
Pmvk (phosphomevalonate kinase),1,67.8,123
Pmvk (phosphomevalonate kinase),2,84.7,79.5

7 entries already listed, arranged by “GFP, % of control”, descending:
target gene,siRNA no.,"GFP, % of control","viability (ATP), % of control"
Etv3 (ets variant 3),3,101,57.4
Fhl1 (four and a half LIM domains 1),1,100,92.6
Etv3 (ets variant 3),2,70.4,91.7
Fhl1 (four and a half LIM domains 1),2,55,57.9
Fhad1 (forkhead-associated phosphopeptide binding domain 1),1,53.8,43.3
Fhad1 (forkhead-associated phosphopeptide binding domain 1),2,46.8,46.3
Etv3 (ets variant 3),1,43.3,36.1
